# Some of the results follow.
# Assays:
# Assay in all cases: glycan array binding signal (z-score within array); higher = stronger binding
# Settings in all cases: glycan notation: IUPAC condensed, linker removed
# [1] = target: Gal3S(b1-3)[Fuc(a1-4)]GlcNAc
# How it was run: (§1)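 Negative Z-scores can be read as non-binding. The Z-score is calculated within each array and then averaged across arrays of one protein sequence at different concentrations or buffers and across linkers. Arrays, 3228 in all, were curated from the Consortium for Functional Glycomics database and kept only where the protein sequence was available.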
# Gal3S(b1-4)Glc = target: Gal3S(b1-4)Glc
# How it was run: as §1
# Gal3S(b1-4)Glc6S = target: Gal3S(b1-4)Glc6S
# How it was run: as §1
# Gal3S(b1-4)GlcNAc = target: Gal3S(b1-4)GlcNAc
# How it was run: as §1
# Gal3S(b1-4)GlcNAc6S = target: Gal3S(b1-4)GlcNAc6S
# How it was run: as §1
# [2] = target: Gal3S(b1-4)[Fuc(a1-3)]Glc
# How it was run: as §1
# [3] = target: Gal3S(b1-4)[Fuc(a1-3)]Glc6S
# How it was run: as §1
# Gal3S4S(b1-4)GlcNAc = target: Gal3S4S(b1-4)GlcNAc
# How it was run: as §1
# Gal3S6S(b1-4)GlcNAc = target: Gal3S6S(b1-4)GlcNAc
# How it was run: as §1
# Gal3S6S(b1-4)GlcNAc6S = target: Gal3S6S(b1-4)GlcNAc6S
# How it was run: as §1
# Gal4S(b1-4)GlcNAc = target: Gal4S(b1-4)GlcNAc
# How it was run: as §1
# Gal4S6S(b1-4)GlcNAc = target: Gal4S6S(b1-4)GlcNAc
# How it was run: as §1
# Gal6S(b1-3)GlcNAc = target: Gal6S(b1-3)GlcNAc
# How it was run: as §1
# Gal6S(b1-3)GlcNAc6S = target: Gal6S(b1-3)GlcNAc6S
# How it was run: as §1
# Gal6S(b1-4)Glc = target: Gal6S(b1-4)Glc
# How it was run: as §1
# Gal6S(b1-4)Glc6S = target: Gal6S(b1-4)Glc6S
# How it was run: as §1
# Gal6S(b1-4)GlcNAc = target: Gal6S(b1-4)GlcNAc
# How it was run: as §1
# Gal6S(b1-4)GlcNAc6S = target: Gal6S(b1-4)GlcNAc6S
# How it was run: as §1
# GalNAc(a1-3)Gal = target: GalNAc(a1-3)Gal
# How it was run: as §1
# GalNAc(a1-3)GalNAc = target: GalNAc(a1-3)GalNAc
# How it was run: as §1
# [4] = target: GalNAc(a1-3)GalNAc(a1-3)Gal(a1-4)Gal(b1-4)GlcNAc
# How it was run: as §1
# [5] = target: GalNAc(a1-3)GalNAc(b1-3)Gal(a1-4)Gal(b1-4)Glc
# How it was run: as §1
# GalNAc(b1-3)Gal = target: GalNAc(b1-3)Gal
# How it was run: as §1
# [6] = target: GalNAc(b1-3)Gal(a1-4)Gal(b1-4)GlcNAc
# How it was run: as §1
# [7] = target: GalNAc(b1-3)Gal(a1-4)Gal(b1-4)GlcNAc(b1-3)Gal(b1-4)Glc
# How it was run: as §1
# [8] = target: GalNAc(b1-3)Gal(a1-6)Gal(b1-4)Glc
# How it was run: as §1
# GalNAc(b1-3)GalNAc = target: GalNAc(b1-3)GalNAc
# How it was run: as §1
# GalNAc(b1-4)Gal(b1-4)Glc = target: GalNAc(b1-4)Gal(b1-4)Glc
# How it was run: as §1
# GalNAc(b1-4)GlcNAc = target: GalNAc(b1-4)GlcNAc
# How it was run: as §1
# [9] = target: GalNAc(b1-4)GlcNAc(b1-2)Man(a1-3)[GalNAc(b1-4)GlcNAc(b1-2)Man(a1-6)]Man(b1-4)GlcNAc(b1-4)GlcNAc
# How it was run: as §1
binder,measurement,setting,value
"Flo11 (Saccharomyces cerevisiae), P08640 (protein) MQRPFLLAYLVLSLLFNSALGFPTALVPRGSSEGTSCNSIVNGCPNLDFNWHMDQQNIMQYTLDVTSVSWVQDNTYQITIHVKGKENIDLKYLWSLKIIGVTGPKGTVQLYGYNENTYLIDNPTDFTATFEVYATQDVNSCQVWMPNFQIQFEYLQGSAAQYASSWQWGTTSFDLSTGCNNYDNQGHSQTDFPGFYWNIDCDNNCGGTKSSTTTSSTSESSTTTSSTSESSTTTSSTSESSTTTSSTSESSTSSSTTAPATPTTTSCTKEKPTPPTTTSCTKEKPTPPHHDTTPCTKKKTTTSKTCTKKTTTPVPTPSSSTTESSSAPVPTPSSSTTESSSAPVTSSTTESSSAPVPTPSSSTTESSSAPVTSSTTESSSAPVTSSTTESSSAPVPTPSSSTTESSSAPVTSSTTESSSAPVTSSTTESSSAPVTSSTTESSSAPVTSSTTESSSAPVPTPSSSTTESSSAPVTSSTTESSSAPVPTPSSSTTESSSAPVTSSTTESSSAPVPTPSSSTTESSSAPAPTPSSSTTESSSAPVTSSTTESSSAPVPTPSSSTTESSSTPVTSSTTESSSAPVPTPSSSTTESSSAPVPTPSSSTTESSSAPAPTPSSSTTESSSAPVTSSTTESSSAPVPTPSSSTTESSSAPVPTPSSSTTESSSAPVPTPSSSTTESSSAPVTSSTTESSSAPVTSSTTESSSAPVPTPSSSTTESSSAPVPTPSSSTTESSSAPVPTPSSSTTESSSAPVTSSTTESSSAPVPTPSSSTTESSSAPVPTPSSSTTESSSAPVPTPSSSTTESSVAPVPTPSSSSNITSSAPSSTPFSSSTESSSVPVPTPSSSTTESSSAPVSSSTTESSVAPVPTPSSSSNITSSAPSSIPFSSTTESFSTGTTVTPSSSKYPGSQTETSVSSTTETTIVPTKTTTSVTTPSTTTITTTVCSTGTNSAGETTSGCSPKTVTTTVPTTTTTSVTTSSTTTITTTVCSTGTNSAGETTSGCSPKTITTTVPCSTSPSETASESTTTSPTTPVTTVVSTTVVTTEYSTSTKPGGEITTTFVTKNIPTTYLTTIAPTPSVTTVTNFTPTTITTTVCSTGTNSAGETTSGCSPKTVTTTVPCSTGTGEYTTEATTLVTTAVTTTVVTTESSTGTNSAGKTTTGYTTKSVPTTYVTTLAPSAPVTPATNAVPTTITTTECSAATNAAGETTSVCSAKTIVSSASAGENTAPSATTPVTTAIPTTVITTESSVGTNSAGETTTGYTTKSIPTTYITTLIPGSNGAKNYETVATATNPISIKTTSQLATTASASSVAPVVTSPSLTGPLQSASGSAVATYSVPSISSTYQGAANIKVLGNFMWLLLALPVVF",glycan array binding signal (z-score),[1],-0.498
same,glycan array binding signal (z-score),Gal3S(b1-4)Glc,0.09
same,glycan array binding signal (z-score),Gal3S(b1-4)Glc6S,0.393
same,glycan array binding signal (z-score),Gal3S(b1-4)GlcNAc,2.02
same,glycan array binding signal (z-score),Gal3S(b1-4)GlcNAc6S,0.3
same,glycan array binding signal (z-score),[2],0.71
same,glycan array binding signal (z-score),[3],0.808
same,glycan array binding signal (z-score),Gal3S4S(b1-4)GlcNAc,0.472
same,glycan array binding signal (z-score),Gal3S6S(b1-4)GlcNAc,-0.322
same,glycan array binding signal (z-score),Gal3S6S(b1-4)GlcNAc6S,0.39
same,glycan array binding signal (z-score),Gal4S(b1-4)GlcNAc,-0.787
same,glycan array binding signal (z-score),Gal4S6S(b1-4)GlcNAc,0.363
same,glycan array binding signal (z-score),Gal6S(b1-3)GlcNAc,0.363
same,glycan array binding signal (z-score),Gal6S(b1-3)GlcNAc6S,-0.484
same,glycan array binding signal (z-score),Gal6S(b1-4)Glc,-0.443
same,glycan array binding signal (z-score),Gal6S(b1-4)Glc6S,-0.866
same,glycan array binding signal (z-score),Gal6S(b1-4)GlcNAc,0.825
same,glycan array binding signal (z-score),Gal6S(b1-4)GlcNAc6S,0.193
same,glycan array binding signal (z-score),GalNAc(a1-3)Gal,0.534
same,glycan array binding signal (z-score),GalNAc(a1-3)GalNAc,0.263
same,glycan array binding signal (z-score),[4],-0.434
same,glycan array binding signal (z-score),[5],0.845
same,glycan array binding signal (z-score),GalNAc(b1-3)Gal,-0.811
same,glycan array binding signal (z-score),[6],-0.709
same,glycan array binding signal (z-score),[7],-0.081
same,glycan array binding signal (z-score),[8],0.165
same,glycan array binding signal (z-score),GalNAc(b1-3)GalNAc,-0.184
same,glycan array binding signal (z-score),GalNAc(b1-4)Gal(b1-4)Glc,-0.38
same,glycan array binding signal (z-score),GalNAc(b1-4)GlcNAc,0.238
same,glycan array binding signal (z-score),[9],0.79

# From the supplement of paper PMC8728848
